# Source: the supplement of paper PMC8728848
# The other results are listed elsewhere or left out.
# Legend:
# Experiment in all cases: glycan array binding signal (z-score within array); higher = stronger binding
# Settings in all cases: glycan notation: IUPAC condensed, linker removed
# [1] = target: Gal(a1-3)Gal(b1-4)GlcNAc(b1-2)Man
# Procedure, shortened: (§1)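 From the Consortium for Functional Glycomics database, 3228 arrays were curated, keeping only those whose protein sequence was available. Binding is given as a within-array Z-score averaged across arrays sharing a protein sequence and across linkers. Negative Z-scores can be read as non-binding.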
# [2] = target: Gal(a1-3)Gal(b1-4)GlcNAc(b1-2)Man(a1-3)[Gal(a1-3)Gal(b1-4)GlcNAc(b1-2)Man(a1-6)]Man(b1-4)GlcNAc(b1-4)GlcNAc
# Procedure, shortened: as §1
# [3] = target: Gal(a1-3)Gal(b1-4)GlcNAc(b1-3)GalNAc
# Procedure, shortened: as §1
# [4] = target: Gal(a1-3)Gal(b1-4)GlcNAc(b1-6)GalNAc
# Procedure, shortened: as §1
# [5] = target: Gal(a1-3)Gal(b1-4)[Fuc(a1-3)]GlcNAc
# Procedure, shortened: as §1
# [6] = target: Gal(a1-3)Gal(b1-4)[Fuc(a1-3)]GlcNAc(b1-2)Man(a1-3)[Gal(a1-3)Gal(b1-4)[Fuc(a1-3)]GlcNAc(b1-2)Man(a1-6)]Man(b1-4)GlcNAc(b1-4)GlcNAc
# Procedure, shortened: as §1
# [7] = target: Gal(a1-3)GalNAc
# Procedure, shortened: as §1
# [8] = target: Gal(a1-3)[Gal(a1-4)]Gal(b1-4)GlcNAc
# Procedure, shortened: as §1
# [9] = target: Gal(a1-4)Gal(b1-3)GlcNAc(b1-2)Man(a1-3)[Gal(a1-4)Gal(b1-3)GlcNAc(b1-2)Man(a1-6)]Man(b1-4)GlcNAc(b1-4)GlcNAc
# Procedure, shortened: as §1
# [10] = target: Gal(a1-4)Gal(b1-4)Glc
# Procedure, shortened: as §1
# [11] = target: Gal(a1-4)Gal(b1-4)GlcNAc
# Procedure, shortened: as §1
# [12] = target: Gal(a1-4)Gal(b1-4)GlcNAc(b1-2)Man(a1-3)[Gal(a1-4)Gal(b1-4)GlcNAc(b1-2)Man(a1-6)]Man(b1-4)GlcNAc(b1-4)GlcNAc
# Procedure, shortened: as §1
# [13] = target: Gal(a1-4)Gal(b1-4)GlcNAc(b1-3)Gal(b1-4)Glc
# Procedure, shortened: as §1
# [14] = target: Gal(a1-4)GlcNAc
# Procedure, shortened: as §1
# [15] = target: Gal(a1-6)Glc
# Procedure, shortened: as §1
# [16] = target: Gal(b1-2)Gal
# Procedure, shortened: as §1
# [17] = target: Gal(b1-3)Gal
# Procedure, shortened: as §1
# [18] = target: Gal(b1-3)Gal(b1-4)GlcNAc
# Procedure, shortened: as §1
# [19] = target: Gal(b1-3)GalNAc
# Procedure, shortened: as §1
# [20] = target: Gal(b1-3)GalNAc(a1-3)[Fuc(a1-2)]Gal(b1-4)Glc
# Procedure, shortened: as §1
# [21] = target: Gal(b1-3)GalNAc(a1-3)[Fuc(a1-2)]Gal(b1-4)GlcNAc
# Procedure, shortened: as §1
# [22] = target: Gal(b1-3)GalNAc(b1-3)Gal
# Procedure, shortened: as §1
# [23] = target: Gal(b1-3)GalNAc(b1-3)Gal(a1-4)Gal(b1-4)Glc
# Procedure, shortened: as §1
# [24] = target: Gal(b1-3)GalNAc(b1-4)Gal(b1-4)Glc
# Procedure, shortened: as §1
# [25] = target: Gal(b1-3)GalNAc(b1-4)[Neu5Ac(a2-3)]Gal(b1-4)Glc
# Procedure, shortened: as §1
# [26] = target: Gal(b1-3)GlcNAc
# Procedure, shortened: as §1
# [27] = target: Gal(b1-3)GlcNAc(a1-3)Gal(b1-4)GlcNAc
# Procedure, shortened: as §1
# [28] = target: Gal(b1-3)GlcNAc(a1-6)Gal(b1-4)GlcNAc
# Procedure, shortened: as §1
# [29] = target: Gal(b1-3)GlcNAc(b1-2)Man
# Procedure, shortened: as §1
# [30] = target: Gal(b1-3)GlcNAc(b1-2)Man(a1-3)[Gal(b1-3)GlcNAc(b1-2)Man(a1-6)]Man(b1-4)GlcNAc(b1-4)GlcNAc
# Procedure, shortened: as §1
# [31] = target: Gal(b1-3)GlcNAc(b1-2)Man(a1-3)[Gal(b1-3)GlcNAc(b1-2)Man(a1-6)]Man(b1-4)GlcNAc(b1-4)[Fuc(a1-6)]GlcNAc
# Procedure, shortened: as §1
# [32] = target: Gal(b1-3)GlcNAc(b1-2)Man(a1-3)[GlcNAc(b1-4)][Gal(b1-3)GlcNAc(b1-2)Man(a1-6)]Man(b1-4)GlcNAc(b1-4)GlcNAc
# Procedure, shortened: as §1
# [33] = target: Gal(b1-3)GlcNAc(b1-2)[Gal(b1-3)GlcNAc(b1-6)]Man(a1-6)[Gal(b1-3)GlcNAc(b1-2)Man(a1-3)]Man(b1-4)GlcNAc(b1-4)GlcNAc
# Procedure, shortened: as §1
# [34] = target: Gal(b1-3)GlcNAc(b1-3)Gal(b1-3)GlcNAc
# Procedure, shortened: as §1
# [35] = target: Gal(b1-3)GlcNAc(b1-3)Gal(b1-4)Glc
# Procedure, shortened: as §1
# [36] = target: Gal(b1-3)GlcNAc(b1-3)Gal(b1-4)GlcNAc
# Procedure, shortened: as §1
# [37] = target: Gal(b1-3)GlcNAc(b1-3)Gal(b1-4)GlcNAc(b1-2)Man(a1-3)[Gal(b1-3)GlcNAc(b1-3)Gal(b1-4)GlcNAc(b1-2)Man(a1-6)]Man(b1-4)GlcNAc(b1-4)GlcNAc
# Procedure, shortened: as §1
# [38] = target: Gal(b1-3)GlcNAc(b1-3)Gal(b1-4)GlcNAc(b1-2)[Gal(b1-3)GlcNAc(b1-3)Gal(b1-4)GlcNAc(b1-6)]Man(a1-6)[Gal(b1-3)GlcNAc(b1-3)Gal(b1-4)GlcNAc(b1-2)Man(a1-3)]Man(b1-4)GlcNAc(b1-4)[Fuc(a1-6)]GlcNAc
# Procedure, shortened: as §1
# [39] = target: Gal(b1-3)GlcNAc(b1-3)Gal(b1-4)GlcNAc(b1-3)Gal(b1-4)GlcNAc(b1-2)[Gal(b1-3)GlcNAc(b1-3)Gal(b1-4)GlcNAc(b1-3)Gal(b1-4)GlcNAc(b1-6)]Man(a1-6)[Gal(b1-3)GlcNAc(b1-3)Gal(b1-4)GlcNAc(b1-3)Gal(b1-4)GlcNAc(b1-2)Man(a1-3)]Man(b1-4)GlcNAc(b1-4)[Fuc(a1-6)]GlcNAc
# Procedure, shortened: as §1
# [40] = target: Gal(b1-3)GlcNAc(b1-3)Gal(b1-4)GlcNAc(b1-6)[Gal(b1-3)GlcNAc(b1-3)]Gal(b1-4)Glc
# Procedure, shortened: as §1
# [41] = target: Gal(b1-3)GlcNAc(b1-3)Gal(b1-4)[Fuc(a1-3)]GlcNAc
# Procedure, shortened: as §1
# [42] = target: Gal(b1-3)GlcNAc(b1-3)Gal(b1-4)[Fuc(a1-3)]GlcNAc(b1-6)[Gal(b1-3)GlcNAc(b1-3)]Gal(b1-4)Glc
# Procedure, shortened: as §1
# [43] = target: Gal(b1-3)GlcNAc(b1-3)GalNAc
# Procedure, shortened: as §1
# [44] = target: Gal(b1-3)GlcNAc(b1-6)Gal(b1-4)GlcNAc
# Procedure, shortened: as §1
# [45] = target: Gal(b1-3)GlcNAc(b1-6)GalNAc
# Procedure, shortened: as §1
binder,measurement,setting,value
SP15308F-bth-333-19-333 (Bacteroides thetaiotaomicron) (protein) SCNNEWESEQYVQMVSFKAPVNAQGVTPIYIRYKPEGKVTYQLPLIVSGSTMNSKDLNVHVGLDLDTLDVLNVEHFGSRKELFFKPLENKYYEFPETVQIPAGECTSLLPIDFALKDLDQVDKWVLPLAIQSNDPSHNYQANPRKFYRRAMLRISPFNDYSGQYSATAYKVYFKGNEKEAIVPEYHTSYVIDDKTIFFYAGLIDIDRLDRKYYKIKFEFTEEKIDLQTRKLKISSDNEDINLVVKGQPSYTVEEEMDATRPYLKHIYVTINNLEYEFTDYTSVPGYPLEYVVKGSLTMERKINTQIPDEDQAIEW,glycan array binding signal (z-score),[1],-0.999
same,glycan array binding signal (z-score),[2],-0.462
same,glycan array binding signal (z-score),[3],-0.383
same,glycan array binding signal (z-score),[4],-0.976
same,glycan array binding signal (z-score),[5],-1.59
same,glycan array binding signal (z-score),[6],-0.37
same,glycan array binding signal (z-score),[7],0.714
same,glycan array binding signal (z-score),[8],1.57
same,glycan array binding signal (z-score),[9],-1.15
same,glycan array binding signal (z-score),[10],-0.452
same,glycan array binding signal (z-score),[11],1.28
same,glycan array binding signal (z-score),[12],1.48
same,glycan array binding signal (z-score),[13],0.018
same,glycan array binding signal (z-score),[14],-1.09
same,glycan array binding signal (z-score),[15],-1
same,glycan array binding signal (z-score),[16],0.151
same,glycan array binding signal (z-score),[17],-0.89
same,glycan array binding signal (z-score),[18],-0.489
same,glycan array binding signal (z-score),[19],-0.555
same,glycan array binding signal (z-score),[20],0.719
same,glycan array binding signal (z-score),[21],-0.913
same,glycan array binding signal (z-score),[22],1.6
same,glycan array binding signal (z-score),[23],-0.601
same,glycan array binding signal (z-score),[24],0.87
same,glycan array binding signal (z-score),[25],-0.243
same,glycan array binding signal (z-score),[26],0.065
same,glycan array binding signal (z-score),[27],-0.961
same,glycan array binding signal (z-score),[28],-0.171
same,glycan array binding signal (z-score),[29],1.87
same,glycan array binding signal (z-score),[30],-0.275
same,glycan array binding signal (z-score),[31],2.33
same,glycan array binding signal (z-score),[32],1.43
same,glycan array binding signal (z-score),[33],0.375
same,glycan array binding signal (z-score),[34],-0.043
same,glycan array binding signal (z-score),[35],-0.746
same,glycan array binding signal (z-score),[36],-0.871
same,glycan array binding signal (z-score),[37],-0.467
same,glycan array binding signal (z-score),[38],0.703
same,glycan array binding signal (z-score),[39],-0.335
same,glycan array binding signal (z-score),[40],0.657
same,glycan array binding signal (z-score),[41],-0.483
same,glycan array binding signal (z-score),[42],-0.893
same,glycan array binding signal (z-score),[43],-1.26
same,glycan array binding signal (z-score),[44],0.49
same,glycan array binding signal (z-score),[45],-0.949

# As a short view, some entries already given:
binder,measurement,setting,value
SP15308F-bth-333-19-333 (Bacteroides thetaiotaomicron) (protein) SCNNEWESEQYVQMVSFKAPVNAQGVTPIYIRYKPEGKVTYQLPLIVSGSTMNSKDLNVHVGLDLDTLDVLNVEHFGSRKELFFKPLENKYYEFPETVQIPAGECTSLLPIDFALKDLDQVDKWVLPLAIQSNDPSHNYQANPRKFYRRAMLRISPFNDYSGQYSATAYKVYFKGNEKEAIVPEYHTSYVIDDKTIFFYAGLIDIDRLDRKYYKIKFEFTEEKIDLQTRKLKISSDNEDINLVVKGQPSYTVEEEMDATRPYLKHIYVTINNLEYEFTDYTSVPGYPLEYVVKGSLTMERKINTQIPDEDQAIEW,glycan array binding signal (z-score),[26],0.065
same,glycan array binding signal (z-score),[27],-0.961
same,glycan array binding signal (z-score),[28],-0.171
same,glycan array binding signal (z-score),[29],1.87
same,glycan array binding signal (z-score),[30],-0.275
same,glycan array binding signal (z-score),[31],2.33
same,glycan array binding signal (z-score),[32],1.43
same,glycan array binding signal (z-score),[33],0.375
same,glycan array binding signal (z-score),[34],-0.043
same,glycan array binding signal (z-score),[35],-0.746
